Assay results: patent US20120128688A1
These are yes or no findings as the source states them, for the method shown. Some entries that bind do so weakly or less than the wild type.

Sequences of proteins named here, by UniProt entry; tags and fusion partners are left off.
UniProt P32302: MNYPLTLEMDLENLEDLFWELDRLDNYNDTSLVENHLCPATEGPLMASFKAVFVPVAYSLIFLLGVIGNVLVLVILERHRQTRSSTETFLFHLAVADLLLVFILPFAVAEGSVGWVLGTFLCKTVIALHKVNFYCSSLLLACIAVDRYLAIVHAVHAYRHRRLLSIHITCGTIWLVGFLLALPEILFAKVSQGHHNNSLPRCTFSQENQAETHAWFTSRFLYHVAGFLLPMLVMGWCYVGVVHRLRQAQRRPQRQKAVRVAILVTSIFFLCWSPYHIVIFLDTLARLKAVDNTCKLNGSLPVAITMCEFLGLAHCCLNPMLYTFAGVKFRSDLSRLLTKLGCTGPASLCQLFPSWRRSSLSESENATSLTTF

Assays:
[1] = target: CXCR5 (human) (UniProt P32302); assay: imaging flow cytometry (Amnis Imagestream) of LNCaP and PC3 cells stained with anti-CXCR5 and anti-CXCL13 antibodies 30 and 60 minutes after 0 or 100 ng/ml CXCL13; signal correlation between CXCR5 and CXCL13
[2] = target: CXCR5 (human) (UniProt P32302); assay: imaging flow cytometry (figure legend, FIGS. 22A-B)

binding [1]: binds
binding [2]: binds
B1: CXCL13 (ligand)
chain: VLEVYYTSLRCRCVQESSVFIPRRFIDRIQILPRGNGCPRKEIIVWKKNKSIVCVDPQAEWIQRMMEVLRKRSSSTLPVPVFKRKIP
